The chains behind the UniProt entries cited, without tags or fusion partners. Residues count along the entry.
UniProt Q99523, residues 78-831: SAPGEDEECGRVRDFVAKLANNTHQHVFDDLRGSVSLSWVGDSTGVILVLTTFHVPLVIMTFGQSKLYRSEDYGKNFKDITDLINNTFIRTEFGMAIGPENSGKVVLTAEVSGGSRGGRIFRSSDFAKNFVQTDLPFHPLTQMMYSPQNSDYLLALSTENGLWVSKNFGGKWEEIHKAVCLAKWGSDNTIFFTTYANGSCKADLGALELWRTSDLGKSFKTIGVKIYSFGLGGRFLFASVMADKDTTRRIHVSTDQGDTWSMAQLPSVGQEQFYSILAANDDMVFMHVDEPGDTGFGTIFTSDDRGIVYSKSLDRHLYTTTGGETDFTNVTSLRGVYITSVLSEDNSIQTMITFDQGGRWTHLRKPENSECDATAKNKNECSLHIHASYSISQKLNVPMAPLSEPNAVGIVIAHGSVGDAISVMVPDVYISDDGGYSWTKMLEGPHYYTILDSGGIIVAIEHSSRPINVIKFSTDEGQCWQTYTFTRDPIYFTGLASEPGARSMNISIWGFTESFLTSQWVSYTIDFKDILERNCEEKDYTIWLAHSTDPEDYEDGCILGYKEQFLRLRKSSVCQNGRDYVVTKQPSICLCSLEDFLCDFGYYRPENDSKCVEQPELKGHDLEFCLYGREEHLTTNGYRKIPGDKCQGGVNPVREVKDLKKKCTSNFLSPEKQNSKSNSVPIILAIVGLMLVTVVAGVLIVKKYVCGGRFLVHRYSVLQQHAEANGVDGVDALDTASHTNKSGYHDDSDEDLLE

In paper PMC11729561:

Target: T1, MDGA2-GFP (full-length human MDGA2 in pEGFP-N1) (human) (UniProt Q7Z553)
T1 sequence: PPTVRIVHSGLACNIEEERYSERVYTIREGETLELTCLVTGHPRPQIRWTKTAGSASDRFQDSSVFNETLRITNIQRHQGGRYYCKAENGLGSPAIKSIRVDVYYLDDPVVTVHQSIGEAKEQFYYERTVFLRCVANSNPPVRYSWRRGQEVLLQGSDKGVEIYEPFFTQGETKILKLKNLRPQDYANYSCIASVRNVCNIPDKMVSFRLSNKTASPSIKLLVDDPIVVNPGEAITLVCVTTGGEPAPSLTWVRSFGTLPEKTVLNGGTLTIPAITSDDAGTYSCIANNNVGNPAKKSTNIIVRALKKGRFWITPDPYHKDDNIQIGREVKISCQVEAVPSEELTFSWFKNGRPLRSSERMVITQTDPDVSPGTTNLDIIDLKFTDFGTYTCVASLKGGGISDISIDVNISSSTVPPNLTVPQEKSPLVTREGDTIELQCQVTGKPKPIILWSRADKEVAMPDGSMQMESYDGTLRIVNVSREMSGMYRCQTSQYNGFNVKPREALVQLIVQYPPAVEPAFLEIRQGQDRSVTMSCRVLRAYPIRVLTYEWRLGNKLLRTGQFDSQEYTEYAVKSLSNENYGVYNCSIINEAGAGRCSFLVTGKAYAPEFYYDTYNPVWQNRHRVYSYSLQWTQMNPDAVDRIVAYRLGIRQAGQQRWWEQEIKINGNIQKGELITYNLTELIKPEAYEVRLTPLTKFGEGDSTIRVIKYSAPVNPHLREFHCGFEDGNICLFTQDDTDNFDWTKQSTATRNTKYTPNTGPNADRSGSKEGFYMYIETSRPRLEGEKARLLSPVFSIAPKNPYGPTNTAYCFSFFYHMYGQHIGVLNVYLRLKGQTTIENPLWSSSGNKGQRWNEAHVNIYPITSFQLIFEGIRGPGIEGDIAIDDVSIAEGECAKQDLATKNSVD
Test: affinity purification with mass spectrometry; MDGA2-GFP transiently expressed in HEK293T; membrane proteins solubilized in 1% TNEN; pulled down with an anti-GFP antibody; LC-MS/MS

- binding: binds
Substance: SORT1 (endogenous, HEK293T cells) (from UniProt Q99523 78-831)

These are yes or no findings as the source states them, for the method shown. In cells and extracts the contact can be indirect. A yes stands for co-enrichment or nearness to the bait. Other partners may have been found. Sequences can lack the tags named with a protein.
